These are yes or no findings as the source states them, for the method shown. Binding seen in cells or lysates may run through a third protein. These calls come from enrichment with a bait or labelling near it, and not all partners need be listed.
Target: GST-TNFR2ICD (UniProt P20333)
Assay: GST-TNFR2ICD pull-down from PGRN-treated human C28I2 chondrocytes, mass spectrometry

By UniProt entry, the sequences of proteins in these tests, tags left out. Residues count along the entry.
UniProt P20333, residues 288-461: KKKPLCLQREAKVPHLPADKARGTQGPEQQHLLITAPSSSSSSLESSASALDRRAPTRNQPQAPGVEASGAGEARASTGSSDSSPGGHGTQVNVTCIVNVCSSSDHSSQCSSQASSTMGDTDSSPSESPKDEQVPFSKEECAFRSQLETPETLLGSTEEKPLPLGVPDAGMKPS

Row | binding | Binder
1 | binds | TRAF1 (protein, human, UniProt Q13077 1-416, looked up) MASSSGSSPRPAPDENEFPFGCPPTVCQDPKEPRALCCAGCLSENPRNGEDQICPKCRGEDLQSISPGSRLRTQEKAHPEVAEAGIGCPFAGVGCSFKGSPQSVQEHEVTSQTSHLNLLLGFMKQWKARLGCGLESGPMALEQNLSDLQLQAAVEVAGDLEVDCYRAPCSESQEELALQHFMKEKLLAELEGKLRVFENIVAVLNKEVEASHLALATSIHQSQLDRERILSLEQRVVELQQTLAQKDQALGKLEQSLRLMEEASFDGTFLWKITNVTRRCHESACGRTVSLFSPAFYTAKYGYKLCLRLYLNGDGTGKRTHLSLFIVIMRGEYDALLPWPFRNKVTFMLLDQNNREHAIDAFRPDLSSASFQRPQSETNVASGCPLFFPLSKLQSPKHAYVKDDTMFLKCIVETST
2 | binds | TRAF2 (protein, human, UniProt Q12933 2-501, looked up) AAASVTPPGSLELLQPGFSKTLLGTKLEAKYLCSACRNVLRRPFQAQCGHRYCSFCLASILSSGPQNCAACVHEGIYEEGISILESSSAFPDNAARREVESLPAVCPSDGCTWKGTLKEYESCHEGRCPLMLTECPACKGLVRLGEKERHLEHECPERSLSCRHCRAPCCGADVKAHHEVCPKFPLTCDGCGKKKIPREKFQDHVKTCGKCRVPCRFHAIGCLETVEGEKQQEHEVQWLREHLAMLLSSVLEAKPLLGDQSHAGSELLQRCESLEKKTATFENIVCVLNREVERVAMTAEACSRQHRLDQDKIEALSSKVQQLERSIGLKDLAMADLEQKVLEMEASTYDGVFIWKISDFARKRQEAVAGRIPAIFSPAFYTSRYGYKMCLRIYLNGDGTGRGTHLSLFFVVMKGPNDALLRWPFNQKVTLMLLDQNNREHVIDAFRPDVTSSSFQRPVNDMNIASGCPLFCPVSKMEAKNSYVRDDAIFIKAIVDLTGL

From patent US20190388508A1
